{"source": "patent US4204065A", "about": "“Soft quaternary surface active agents and method of using same” (Interx Research Corporation, priority 1978, dated 1980)", "key": {"S. typhimirum": {"system": "S. typhimirum", "experiment": "Minimal inhibitory concentration (MIC), S. typhimirum", "format": "cell-based", "conditions": "pH 7, read-out: Minimal inhibitory concentration (MIC), S. typhimirum"}, "mouse": {"system": "mouse", "conditions": "oral vs IP; cited from earlier work"}}}
{"smiles": "CCCCCCCCCCCCCCCC[n+]1ccccc1", "note": "[Compound 1, cetylpyridinium chloride]", "values": [{"measurement": "MIC", "setting": "S. typhimirum", "result": 8, "unit": "µg/mL"}, {"measurement": "LD50 via oral versus I.P. administration", "setting": "mouse", "result": "substantially greater"}]}
